Assay results as given in article PMC8573169, “Structural basis for the inhibition of the Bacillus subtilis c-di-AMP cyclase CdaA by the phosphoglucomutase GlmM” (The Journal of Biological Chemistry, 2021).
Results are given in words; binding and its absence hold for the method and conditions named. Some entries that bind do so weakly or less than the wild type. Sequences can lack the tags named with a protein.

Biological target: T1, B. subtilis CdaA catalytic domain (CdaACD), His-tagged (B. subtilis) (UniProt Q45589)
T1 sequence: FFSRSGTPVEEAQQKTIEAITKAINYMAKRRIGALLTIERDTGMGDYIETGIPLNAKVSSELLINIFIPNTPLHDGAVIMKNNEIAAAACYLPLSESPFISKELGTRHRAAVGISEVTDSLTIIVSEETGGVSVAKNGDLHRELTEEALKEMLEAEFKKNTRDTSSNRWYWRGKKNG
Test: SEC; lysates of the two E. coli strains mixed after the French press step, Ni-NTA affinity chromatography (both proteins His-tagged), then preparative Superdex 200 HiLoad 16/60 in 30 mM Tris pH 7.5, 150 mM NaCl; peak fractions on SDS-PAGE with Coomassie staining

binding: binds
B1: B. subtilis GlmM D151A/E154A alanine substitution variant, His-tagged (enzyme, UniProt O34824 1-448)
chain: MGKYFGTDGVRGVANSELTPELAFKVGRFGGYVLTKDKQRPKVLIGRDTRISGHMLEGALVAGLLSIGAEVMRLGVISTPGVSYLTKAMDAEAGVMISASHNPVQDNGIKFFGGDGFKLSDEQEAEIERLMDEPEDKLPRPVGADLGLVNAYFAGGQKYLQFLKQTADEDFTGIHVALDCANGATSSLATHLFADLDADVSTMGTSPNGLNINDGVGSTHPEALSAFVKEKNADLGLAFDGDGDRLIAVDEKGNIVDGDQIMYICSKHLKSEGRLKDDTVVSTVMSNLGFYKALEKEGIKSVQTAVGDRYVVEAMKKDGYNVGGEQSGHLIFLDYNTTGDGLLSAIMLMNTLKATGKPLSELAAEMQKFPQLLVNVRVTDKYKVEENEKVKAVISEVEKEMNGDGRILVRPSGTEPLVRVMAEAKTKELCDEYVNRIVEVVRSEMGLE
